Measurements reported in PMC4918316.
Results are given in words; binding and its absence hold for the method and conditions named. Binding seen in cells or lysates may run through a third protein. Some results given as binding are weak or reduced against the parent protein; the word gives no strength. For some assays here: Sequences can lack the tags named with a protein.

By UniProt entry, the sequences of proteins in these tests, tags left out.
UniProt Q9P2N6: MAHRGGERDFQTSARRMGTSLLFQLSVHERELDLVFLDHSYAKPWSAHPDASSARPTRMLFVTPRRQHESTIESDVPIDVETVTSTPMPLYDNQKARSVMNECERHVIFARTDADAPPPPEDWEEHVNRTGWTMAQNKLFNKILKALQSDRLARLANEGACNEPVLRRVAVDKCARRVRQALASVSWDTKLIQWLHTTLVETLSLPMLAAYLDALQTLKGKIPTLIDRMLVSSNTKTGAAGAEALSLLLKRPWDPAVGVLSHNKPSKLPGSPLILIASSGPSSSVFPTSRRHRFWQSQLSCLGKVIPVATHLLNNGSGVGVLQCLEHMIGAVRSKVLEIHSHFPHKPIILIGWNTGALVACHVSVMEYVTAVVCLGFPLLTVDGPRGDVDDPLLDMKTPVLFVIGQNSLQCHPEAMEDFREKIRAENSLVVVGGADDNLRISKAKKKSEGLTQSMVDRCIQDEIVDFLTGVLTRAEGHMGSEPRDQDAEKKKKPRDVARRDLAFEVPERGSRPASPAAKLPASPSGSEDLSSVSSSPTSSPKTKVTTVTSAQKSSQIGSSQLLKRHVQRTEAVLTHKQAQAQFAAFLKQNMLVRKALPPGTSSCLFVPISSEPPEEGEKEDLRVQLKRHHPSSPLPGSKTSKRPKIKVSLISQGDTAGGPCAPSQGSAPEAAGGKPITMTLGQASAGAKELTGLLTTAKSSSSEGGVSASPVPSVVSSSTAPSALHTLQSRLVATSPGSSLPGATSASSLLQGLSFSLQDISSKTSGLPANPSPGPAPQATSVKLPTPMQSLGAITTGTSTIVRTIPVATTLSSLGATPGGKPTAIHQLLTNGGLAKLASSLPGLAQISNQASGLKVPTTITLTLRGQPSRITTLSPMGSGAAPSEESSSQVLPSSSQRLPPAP
UniProt Q96EZ8: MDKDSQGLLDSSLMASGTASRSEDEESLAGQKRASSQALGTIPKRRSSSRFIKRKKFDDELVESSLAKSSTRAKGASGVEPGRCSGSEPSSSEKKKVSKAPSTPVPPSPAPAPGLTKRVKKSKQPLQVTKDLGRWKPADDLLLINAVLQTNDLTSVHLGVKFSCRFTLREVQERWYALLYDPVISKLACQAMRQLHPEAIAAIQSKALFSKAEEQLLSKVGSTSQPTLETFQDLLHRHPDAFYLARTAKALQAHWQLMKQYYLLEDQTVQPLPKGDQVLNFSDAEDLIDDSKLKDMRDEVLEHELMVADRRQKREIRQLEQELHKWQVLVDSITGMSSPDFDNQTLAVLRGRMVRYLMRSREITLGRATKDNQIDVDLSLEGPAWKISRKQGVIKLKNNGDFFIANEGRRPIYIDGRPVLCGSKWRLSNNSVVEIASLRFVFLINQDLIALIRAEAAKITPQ
UniProt Q9ULW0: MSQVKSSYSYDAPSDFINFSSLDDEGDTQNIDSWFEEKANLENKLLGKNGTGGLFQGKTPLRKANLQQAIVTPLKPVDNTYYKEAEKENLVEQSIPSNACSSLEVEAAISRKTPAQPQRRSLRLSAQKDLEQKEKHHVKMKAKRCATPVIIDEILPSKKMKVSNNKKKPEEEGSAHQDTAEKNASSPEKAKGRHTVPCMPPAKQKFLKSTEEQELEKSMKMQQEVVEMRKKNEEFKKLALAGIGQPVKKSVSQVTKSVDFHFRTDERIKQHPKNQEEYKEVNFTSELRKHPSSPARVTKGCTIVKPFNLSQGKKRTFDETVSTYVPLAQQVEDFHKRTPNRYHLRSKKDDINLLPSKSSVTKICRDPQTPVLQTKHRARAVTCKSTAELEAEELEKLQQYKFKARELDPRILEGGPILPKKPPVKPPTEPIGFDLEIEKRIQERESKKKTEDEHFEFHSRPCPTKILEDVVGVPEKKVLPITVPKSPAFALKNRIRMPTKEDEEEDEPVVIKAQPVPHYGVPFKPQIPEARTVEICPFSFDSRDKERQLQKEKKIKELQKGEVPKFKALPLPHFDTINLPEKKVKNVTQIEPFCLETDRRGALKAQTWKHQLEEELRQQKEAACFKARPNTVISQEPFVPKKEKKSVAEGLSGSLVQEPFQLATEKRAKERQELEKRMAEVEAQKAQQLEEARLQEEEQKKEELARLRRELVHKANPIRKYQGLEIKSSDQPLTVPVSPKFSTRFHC

T1: KANSL1-FBH (UniProt Q7Z3B3)
T1 sequence: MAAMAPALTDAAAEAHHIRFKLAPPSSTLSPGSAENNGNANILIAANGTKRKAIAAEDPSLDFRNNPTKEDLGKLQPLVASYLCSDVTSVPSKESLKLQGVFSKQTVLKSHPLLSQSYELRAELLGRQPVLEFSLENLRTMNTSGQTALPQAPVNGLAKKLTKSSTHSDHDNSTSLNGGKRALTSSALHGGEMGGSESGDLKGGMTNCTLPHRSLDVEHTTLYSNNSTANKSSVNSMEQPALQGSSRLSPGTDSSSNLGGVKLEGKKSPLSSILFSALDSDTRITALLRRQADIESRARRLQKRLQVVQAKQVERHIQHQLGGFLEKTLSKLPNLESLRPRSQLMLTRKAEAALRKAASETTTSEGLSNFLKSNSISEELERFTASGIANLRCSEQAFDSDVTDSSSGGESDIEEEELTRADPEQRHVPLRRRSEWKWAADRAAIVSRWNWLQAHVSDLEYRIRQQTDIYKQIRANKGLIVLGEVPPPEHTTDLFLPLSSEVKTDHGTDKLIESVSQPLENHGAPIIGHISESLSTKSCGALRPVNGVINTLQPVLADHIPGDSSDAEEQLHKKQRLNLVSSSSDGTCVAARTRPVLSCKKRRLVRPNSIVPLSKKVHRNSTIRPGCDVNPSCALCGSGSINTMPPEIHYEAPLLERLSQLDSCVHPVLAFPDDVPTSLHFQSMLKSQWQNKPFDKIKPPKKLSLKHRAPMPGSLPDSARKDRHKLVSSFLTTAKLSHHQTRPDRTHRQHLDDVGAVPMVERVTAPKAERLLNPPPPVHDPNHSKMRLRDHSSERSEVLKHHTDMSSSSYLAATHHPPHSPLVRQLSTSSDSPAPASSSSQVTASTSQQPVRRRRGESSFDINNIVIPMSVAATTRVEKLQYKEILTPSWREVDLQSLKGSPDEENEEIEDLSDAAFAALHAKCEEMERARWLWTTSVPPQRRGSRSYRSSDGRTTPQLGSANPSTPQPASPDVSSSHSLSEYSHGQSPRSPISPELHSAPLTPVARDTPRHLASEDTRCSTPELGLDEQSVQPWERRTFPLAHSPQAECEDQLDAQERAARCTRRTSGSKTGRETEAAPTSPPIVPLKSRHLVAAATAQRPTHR

T2: 3FLAG/HA-tagged Drosophila males absent on the first (MOF) (Drosophila melanogaster) (UniProt O02193)
T2 sequence: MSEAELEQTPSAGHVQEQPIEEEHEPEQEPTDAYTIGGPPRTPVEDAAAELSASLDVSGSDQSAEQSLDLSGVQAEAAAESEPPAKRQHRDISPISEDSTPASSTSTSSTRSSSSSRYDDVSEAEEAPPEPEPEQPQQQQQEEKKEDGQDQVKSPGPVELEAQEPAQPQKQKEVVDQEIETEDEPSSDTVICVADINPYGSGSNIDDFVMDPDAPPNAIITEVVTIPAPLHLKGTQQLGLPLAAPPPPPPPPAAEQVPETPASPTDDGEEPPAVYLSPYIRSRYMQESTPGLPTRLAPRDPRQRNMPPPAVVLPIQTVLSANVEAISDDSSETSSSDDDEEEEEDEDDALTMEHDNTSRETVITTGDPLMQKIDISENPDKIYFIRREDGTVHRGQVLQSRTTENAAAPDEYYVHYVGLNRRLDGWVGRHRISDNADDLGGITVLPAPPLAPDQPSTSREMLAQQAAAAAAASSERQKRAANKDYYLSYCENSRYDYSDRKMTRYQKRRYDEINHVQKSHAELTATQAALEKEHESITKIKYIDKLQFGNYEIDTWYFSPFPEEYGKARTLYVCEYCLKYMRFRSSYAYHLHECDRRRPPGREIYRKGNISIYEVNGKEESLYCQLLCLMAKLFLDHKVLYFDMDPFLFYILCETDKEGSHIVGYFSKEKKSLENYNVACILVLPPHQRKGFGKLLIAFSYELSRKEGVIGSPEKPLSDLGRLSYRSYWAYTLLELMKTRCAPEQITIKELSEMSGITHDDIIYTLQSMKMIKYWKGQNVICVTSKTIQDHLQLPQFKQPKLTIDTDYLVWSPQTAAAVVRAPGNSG


Legend:
KANSL3-FBH = KANSL3-FBH (UniProt Q9P2N6); assay: co-IP; FLAG beads on lysates of synchronized cells (HEK293 Flp-In Trex lines, mitosis by STLC); washed in 25 mM HEPES pH 7.6, 75 mM KCl, 12.5 mM MgCl2, 10% glycerol, 0.1% Tween20
KANSL1-FBH = target: T1, KANSL1-FBH; assay: as above
MCRS1-FBH = MCRS1-FBH (UniProt Q96EZ8); assay: as above
[1] = target: human KANSL3 tagged with 3FLAG (human) (UniProt Q9P2N6); assay: pull-down; all seven members co-expressed in SF21 cells, only KANSL3 tagged (3FLAG); cell extract incubated with FLAG beads; done separately for the human and the Drosophila complex
[2] = target: T2, 3FLAG/HA-tagged Drosophila males absent on the first (MOF) (Drosophila melanogaster); assay: pull-down; recombinant 3FLAG/HA protein at 100 nM incubated in CSF-arrested Xenopus egg extract with 10 uM RanGTPQ69L, retrieved on Protein A Dynabeads coupled with anti-HA antibodies; western blot of the beads; only the target purified

Molecule | binding [1] | further results
TPX2 (mammalian cells) (from UniProt Q9ULW0 1-747) |  | binding (KANSL3-FBH): binds; binding (KANSL1-FBH): binds; binding (MCRS1-FBH): binds
human MCRS1, untagged (from UniProt Q96EZ8 1-462) | binds | 
human KANSL1, untagged (protein, UniProt Q7Z3B3 1-1105) MAAMAPALTDAAAEAHHIRFKLAPPSSTLSPGSAENNGNANILIAANGTKRKAIAAEDPSLDFRNNPTKEDLGKLQPLVASYLCSDVTSVPSKESLKLQGVFSKQTVLKSHPLLSQSYELRAELLGRQPVLEFSLENLRTMNTSGQTALPQAPVNGLAKKLTKSSTHSDHDNSTSLNGGKRALTSSALHGGEMGGSESGDLKGGMTNCTLPHRSLDVEHTTLYSNNSTANKSSVNSMEQPALQGSSRLSPGTDSSSNLGGVKLEGKKSPLSSILFSALDSDTRITALLRRQADIESRARRLQKRLQVVQAKQVERHIQHQLGGFLEKTLSKLPNLESLRPRSQLMLTRKAEAALRKAASETTTSEGLSNFLKSNSISEELERFTASGIANLRCSEQAFDSDVTDSSSGGESDIEEEELTRADPEQRHVPLRRRSEWKWAADRAAIVSRWNWLQAHVSDLEYRIRQQTDIYKQIRANKGLIVLGEVPPPEHTTDLFLPLSSEVKTDHGTDKLIESVSQPLENHGAPIIGHISESLSTKSCGALRPVNGVINTLQPVLADHIPGDSSDAEEQLHKKQRLNLVSSSSDGTCVAARTRPVLSCKKRRLVRPNSIVPLSKKVHRNSTIRPGCDVNPSCALCGSGSINTMPPEIHYEAPLLERLSQLDSCVHPVLAFPDDVPTSLHFQSMLKSQWQNKPFDKIKPPKKLSLKHRAPMPGSLPDSARKDRHKLVSSFLTTAKLSHHQTRPDRTHRQHLDDVGAVPMVERVTAPKAERLLNPPPPVHDPNHSKMRLRDHSSERSEVLKHHTDMSSSSYLAATHHPPHSPLVRQLSTSSDSPAPASSSSQVTASTSQQPVRRRRGESSFDINNIVIPMSVAATTRVEKLQYKEILTPSWREVDLQSLKGSPDEENEEIEDLSDAAFAALHAKCEEMERARWLWTTSVPPQRRGSRSYRSSDGRTTPQLGSANPSTPQPASPDVSSSHSLSEYSHGQSPRSPISPELHSAPLTPVARDTPRHLASEDTRCSTPELGLDEQSVQPWERRTFPLAHSPQAECEDQLDAQERAARCTRRTSGSKTGRETEAAPTSPPIVPLKSRHLVAAATAQRPTHR | binds | 
human KANSL2, untagged (protein, UniProt Q9H9L4 1-492) MNRIRIHVLPTNRGRITPVPRSQEPLSCAFTHRPCSHPRLEGQEFCIKHILEDKNAPFKQCSYISTKNGKRCPNAAPKPEKKDGVSFCAEHVRRNALALHAQMKKTNPGPVGETLLCQLSSYAKTELGSQTPESSRSEASRILDEDSWSDGEQEPITVDQTWRGDPDSEADSIDSDQEDPLKHAGVYTAEEVALIMREKLIRLQSLYIDQFKRLQHLLKEKKRRYLHNRKVEHEALGSSLLTGPEGLLAKERENLKRLKCLRRYRQRYGVEALLHRQLKERRMLATDGAAQQAHTTRSSQRCLAFVDDVRCSNQSLPMTRHCLTHICQDTNQVLFKCCQGSEEVPCNKPVPVSLSEDPCCPLHFQLPPQMYKPEQVLSVPDDLEAGPMDLYLSAAELQPTESLPLEFSDDLDVVGDGMQCPPSPLLFDPSLTLEDHLVKEIAEDPVDILGQMQMAGDGCRSQGSRNSEKASAPLSQSGLATANGKPEPTSIS | binds | 
human PHF20, untagged (protein, UniProt Q9BVI0 1-1012) MTKHPPNRRGISFEVGAQLEARDRLKNWYPAHIEDIDYEEGKVLIHFKRWNHRYDEWFCWDSPYLRPLEKIQLRKEGLHEEDGSSEFQINEQVLACWSDCRFYPAKVTAVNKDGTYTVKFYDGVVQTVKHIHVKAFSKDQNIVGNARPKETDHKSLSSSPDKREKFKEQRKATVNVKKDKEDKPLKTEKRPKQPDKEGKLICSEKGKVSEKSLPKNEKEDKENISENDREYSGDAQVDKKPENDIVKSPQENLREPKRKRGRPPSIAPTAVDSNSQTLQPITLELRRRKISKGCEVPLKRPRLDKNSSQEKSKNYSENTDKDLSRRRSSRLSTNGTHEILDPDLVVSDLVDTDPLQDTLSSTKESEEGQLKSALEAGQVSSALTCHSFGDGSGAAGLELNCPSMGENTMKTEPTSPLVELQEISTVEVTNTFKKTDDFGSSNAPAVDLDHKFRCKVVDCLKFFRKAKLLHYHMKYFHGMEKSLEPEESPGKRHVQTRGPSASDKPSQETLTRKRVSASSPTTKDKEKNKEKKFKEFVRVKPKKKKKKKKKTKPECPCSEEISDTSQEPSPPKAFAVTRCGSSHKPGVHMSPQLHGPESGHHKGKVKALEEDNLSESSSESFLWSDDEYGQDVDVTTNPDEELDGDDRYDFEVVRCICEVQEENDFMIQCEECQCWQHGVCMGLLEENVPEKYTCYVCQDPPGQRPGFKYWYDKEWLSRGHMHGLAFLEENYSHQNAKKIVATHQLLGDVQRVIEVLHGLQLKMSILQSREHPDLPLWCQPWKQHSGEGRSHFRNIPVTDTRSKEEAPSYRTLNGAVEKPRPLALPLPRSVEESYITSEHCYQKPRAYYPAVEQKLVVETRGSALDDAVNPLHENGDDSLSPRLGWPLDQDRSKGDSDPKPGSPKVKEYVSKKALPEEAPARKLLDRGGEGLLSSQHQWQFNLLTHVESLQDEVTHRMDSIEKELDVLESWLDYTGELEPPEPLARLPQLKHCIKQLLMDLGKVQQIALCCST | binds | 
MCAK of Xenopus egg extract (protein, UniProt Q91636 1-730) MERLVATRLVTGLAVKIMRSNGVIHNANITSVNMDRSSVNVEWKEGEANKGKEISFADVISVNPELLDAVLAPTNVKENMPPQRNVSSQNHKRKTISKIPAPKEVAAKNSLLSESGAQSVLRERSTRMTAIHETLPYENEMEAESTPLPIQQNSVQARSRSTKVSIAEEPRLQTRISEIVEESLPSGRNNQGRRKSNIVKEMEKMKNKREEQRAQNYERRMKRAQDYDTSVPNWEFGKMIKEFRATMDCHRISMADPAEEHRICVCVRKRPLNKQELSKKEIDIISVPSKNIVLVHEPKLKVDLTKYLENQAFRFDFSFDETATNEVVYRFTARPLVQSIFEGGKATCFAYGQTGSGKTHTMGGDFSGKSQNVSKGVYAFASRDVFLLLDQPRYKHLDLDVFVTFFEIYNGKVFDLLNKKTKLRVLEDAKQEVQVVGLLEKQVISADDVFKMIEIGSACRTSGQTFANTSSSRSHACLQIILRRGSKLHGKFSLVDLAGNERGVDTASADRITRMEGAEINRSLLALKECIRALGQNKSHTPFRESKLTQILRDSFIGENSRTCMIAMLSPGFNSCEYTLNTLRYADRVKELSPQNAETNDDNLQMEDSGGSHASIEGLQLQDDFLLKDEELSTHNSFQDALNRVGELEDKAVDELRELVQKEPEWTNLLQMTEQPDYDLENFVMQAEYLIQERSKVLIALGDSINSLRLALQVEEQASKQISKKKRSNK |  | binding [2]: no binding
